# Percent effect of library compounds

By UniProt entry, the sequences of proteins in these tests, tags left out.
UniProt I6X8D2, whole entry: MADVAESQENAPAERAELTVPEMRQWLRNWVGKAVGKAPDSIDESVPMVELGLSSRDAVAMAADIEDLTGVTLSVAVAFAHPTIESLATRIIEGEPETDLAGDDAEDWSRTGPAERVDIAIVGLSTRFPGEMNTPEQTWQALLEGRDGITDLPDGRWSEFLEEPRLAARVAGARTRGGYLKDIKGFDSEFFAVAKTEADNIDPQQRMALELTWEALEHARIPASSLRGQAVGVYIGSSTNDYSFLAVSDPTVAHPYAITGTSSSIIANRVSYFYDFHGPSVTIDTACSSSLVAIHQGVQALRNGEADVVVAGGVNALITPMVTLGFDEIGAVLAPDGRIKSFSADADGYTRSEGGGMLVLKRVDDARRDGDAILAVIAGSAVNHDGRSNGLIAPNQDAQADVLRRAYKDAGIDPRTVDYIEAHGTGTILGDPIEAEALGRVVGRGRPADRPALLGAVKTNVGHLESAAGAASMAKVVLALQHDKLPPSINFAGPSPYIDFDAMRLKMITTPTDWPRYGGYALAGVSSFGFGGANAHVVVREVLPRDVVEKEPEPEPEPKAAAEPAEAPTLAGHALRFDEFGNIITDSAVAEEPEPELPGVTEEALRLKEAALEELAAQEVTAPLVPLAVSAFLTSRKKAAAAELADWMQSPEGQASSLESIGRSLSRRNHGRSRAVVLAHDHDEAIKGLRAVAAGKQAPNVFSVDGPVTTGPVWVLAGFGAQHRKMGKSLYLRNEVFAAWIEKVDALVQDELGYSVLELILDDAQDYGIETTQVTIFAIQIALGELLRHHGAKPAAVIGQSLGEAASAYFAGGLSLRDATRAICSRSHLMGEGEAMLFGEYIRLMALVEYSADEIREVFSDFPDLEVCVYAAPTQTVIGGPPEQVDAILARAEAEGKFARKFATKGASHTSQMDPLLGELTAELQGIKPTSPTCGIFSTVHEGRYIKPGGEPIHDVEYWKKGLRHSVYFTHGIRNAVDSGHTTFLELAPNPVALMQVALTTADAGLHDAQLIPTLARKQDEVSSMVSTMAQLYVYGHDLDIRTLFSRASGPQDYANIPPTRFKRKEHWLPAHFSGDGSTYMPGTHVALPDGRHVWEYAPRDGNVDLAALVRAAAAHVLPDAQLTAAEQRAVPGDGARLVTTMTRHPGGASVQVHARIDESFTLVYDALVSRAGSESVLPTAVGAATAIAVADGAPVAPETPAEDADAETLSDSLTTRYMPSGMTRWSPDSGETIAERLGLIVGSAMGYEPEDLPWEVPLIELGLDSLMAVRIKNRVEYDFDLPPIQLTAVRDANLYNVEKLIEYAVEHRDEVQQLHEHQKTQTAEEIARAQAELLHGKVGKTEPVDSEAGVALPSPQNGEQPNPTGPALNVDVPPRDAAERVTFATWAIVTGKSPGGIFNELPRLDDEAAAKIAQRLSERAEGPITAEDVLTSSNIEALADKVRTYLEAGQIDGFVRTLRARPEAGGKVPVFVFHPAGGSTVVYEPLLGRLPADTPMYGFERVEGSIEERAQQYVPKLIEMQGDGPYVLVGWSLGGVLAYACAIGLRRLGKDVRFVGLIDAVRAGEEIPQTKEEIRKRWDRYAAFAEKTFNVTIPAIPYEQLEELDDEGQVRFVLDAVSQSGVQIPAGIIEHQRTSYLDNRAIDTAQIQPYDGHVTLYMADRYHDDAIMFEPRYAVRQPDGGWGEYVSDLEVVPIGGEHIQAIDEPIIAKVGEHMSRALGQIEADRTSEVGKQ

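Enzyme assay of the thioesterase domain of polyketide synthase 13; the read-out is not stated. Target: Polyketide synthase Pks13, Mycobacterium tuberculosis (UniProt I6X8D2). Tested at 30 µM. Higher reads as stronger inhibition (inferred from which compounds were picked for retests). Of about 67,000 compounds tested this way, about 300 (0.46%) reached 50% or more in at least one test.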

Each number is a percent effect as filed. How 0% and 100% were set is not recorded. Most values in the screen are low, and negative values occur. The compounds are a random part of those screened.

| SMILES | percent effect |
|---|---|
| `O=C(NCCCn1cccn1)N1CCCC1c1ccncc1` (stereo not given) | -9.508% |
| `O=C(N1CCCO1)[C@@]12CCO[C@@H]1CCN(Cc1ccc(F)cc1)C2` | -19.48% |
| `Cc1cnc(CN2CCC(N(C)Cc3nnc(C)n3C)C2)cn1` (stereo not given) | -24.8% |
| `CCC(CNC(=O)Cc1cc(C)on1)Oc1cccc(F)c1` (stereo not given) | -12.96% |
| `Cc1cc(CN2CCC3(CC2)COC(COc2ccccn2)C3)no1` (stereo not given) | -13.53% |
| `Cc1ccc(C(=O)NCc2ccnc(N(C)C)c2)c(C)c1` | 1.079% |
| `Cn1cnc2c1CCN(Cc1cccc(C(=O)N3CCCCC3)c1)C2` | -23.92% |
| `NC(=O)C(NC(=O)COC1CCCCC1)c1ccccc1` (stereo not given) | -5.213% |
| `O=C(CN1C(=O)CCCc2sccc21)NC1CCc2nccn2C1` (stereo not given) | -13.03% |
| `CN(C)c1ccc(C2CCN(c3cnccn3)CC2)nc1` | 12.37% |
| `Cc1cc(C(F)(F)F)cc(N2CCC3(CCC(=O)N(CCO)C3)CC2)n1` | -1.444% |
| `Cc1cncc(NC(=O)c2ccc(CN3CCC(CO)CC3)cc2)c1` | -3.887% |
| `c1csc(CN(Cc2ccsc2)CC2CCCO2)n1` (stereo not given) | -6.442% |
| `Cc1cnn(CC2CN(CC(=O)NCCc3cccs3)CCO2)c1` (stereo not given) | -15.07% |
| `COCCO[C@@H]1C[C@H]2CN(C(=O)c3cccnc3)CCN2C1` | -22.75% |
| `Cc1nn(-c2ccccc2)c2nc(C(C)(C)CN3CCN(C)CC3)[nH]c12` | -4.861% |
| `CCN(CC)c1ncccc1CNCc1ccc(Cl)s1` | -10.37% |
| `CCN(CC)C(C(=O)Nc1ccc2c(c1)CCC(=O)N2)c1ccccc1` (stereo not given) | -5.217% |
| `Fc1ccc(CN2CCO[C@H]3[C@H](OCc4ccncc4)CC[C@@H]32)cc1` | -12.15% |
| `O=C1NC2(CCN(Cc3ccsc3)CC2)CC1c1ccncc1` (stereo not given) | -12.22% |
| `O=C(CC1CCCCC1)NC1CCCc2nc(N3CCOCC3)ncc21` (stereo not given) | 5.285% |
| `CCC1(CO)CCCN(c2ncccc2C#N)C1` (stereo not given) | 0.1044% |
| `COc1ccc(-c2ccnc(N)c2)c(OC)c1` | 13.73% |
| `CNC(=O)C1(CCCc2ccncc2)CCCCN1` (stereo not given) | -10.43% |
| `CNC(=O)c1nc2c(s1)CCN(C(=O)Cc1ccc(OC)cc1)CC2` | -26.89% |
| `Cc1csc(CN2CCC(C(=O)O)(n3ccc(-c4ccco4)n3)CC2)n1` | -0.328% |
| `COCCNC(=O)[C@H]1CN2CCC1C[C@@H]2Cn1cc(C(C)(C)C)nn1` (stereo not given in full) | -23.21% |
| `COCC(=O)N[C@H]1C[C@@H](Cc2cc(CN3CCOCC3)on2)C1(C)C` | 22.13% |
| `Cc1cnn(CC2CCCN2C(=O)CCc2c(C)nn(C)c2C)c1` (stereo not given) | -9.854% |
| `CNC(=O)C1CN(C(=O)c2cccs2)CCN(S(C)(=O)=O)C1` (stereo not given) | -38.08% |
| `Cc1nc(CN2CCN(C(=O)COc3c(C)ccc(C)c3C)CC2)no1` | -26.69% |
| `O=C1NCCN(C(=O)CN2CCOC2=O)C1c1cccc(F)c1` (stereo not given) | -33.59% |
| `Cc1cc(=O)n2nc(Oc3cccc(I)c3)sc2n1` | -3.513% |
| `CNCc1cc(F)ccc1Oc1ccc(F)cc1F` | 11.64% |
| `CN1CCN(CCn2cnc3c(F)cccc3c2=O)CC1` | -11.53% |
| `CNC(=O)CN1CCO[C@H]2CN(CC3CCOC3)C[C@H]21` (stereo not given in full) | -18.95% |
| `Cc1nc(-c2ccco2)ccc1C(=O)NCC(=O)N1CCCCC1` | -6.431% |
| `Cc1cc2nc(CN(C)c3ccc(Cl)cc3)cc(=O)n2o1` | -17.45% |
| `CNC(=O)CS(=O)(=O)Cc1coc(-c2ccc(OC)cc2)n1` | -7.7% |
| `CCc1ncncc1C(=O)N1CCCN(Cc2ccccc2C)CC1` | -1.24% |

Source: ChEMBL document CHEMBL3988442, “University of Dundee, Small-Polar-MMV Screening Library” (2021).